# From patent US20040132096A1
# Amino acid sequences for entries named in this document (tags omitted). A change or cut given only in a name is not applied to a line headed by its entry.
# UniProt Q9NQC3: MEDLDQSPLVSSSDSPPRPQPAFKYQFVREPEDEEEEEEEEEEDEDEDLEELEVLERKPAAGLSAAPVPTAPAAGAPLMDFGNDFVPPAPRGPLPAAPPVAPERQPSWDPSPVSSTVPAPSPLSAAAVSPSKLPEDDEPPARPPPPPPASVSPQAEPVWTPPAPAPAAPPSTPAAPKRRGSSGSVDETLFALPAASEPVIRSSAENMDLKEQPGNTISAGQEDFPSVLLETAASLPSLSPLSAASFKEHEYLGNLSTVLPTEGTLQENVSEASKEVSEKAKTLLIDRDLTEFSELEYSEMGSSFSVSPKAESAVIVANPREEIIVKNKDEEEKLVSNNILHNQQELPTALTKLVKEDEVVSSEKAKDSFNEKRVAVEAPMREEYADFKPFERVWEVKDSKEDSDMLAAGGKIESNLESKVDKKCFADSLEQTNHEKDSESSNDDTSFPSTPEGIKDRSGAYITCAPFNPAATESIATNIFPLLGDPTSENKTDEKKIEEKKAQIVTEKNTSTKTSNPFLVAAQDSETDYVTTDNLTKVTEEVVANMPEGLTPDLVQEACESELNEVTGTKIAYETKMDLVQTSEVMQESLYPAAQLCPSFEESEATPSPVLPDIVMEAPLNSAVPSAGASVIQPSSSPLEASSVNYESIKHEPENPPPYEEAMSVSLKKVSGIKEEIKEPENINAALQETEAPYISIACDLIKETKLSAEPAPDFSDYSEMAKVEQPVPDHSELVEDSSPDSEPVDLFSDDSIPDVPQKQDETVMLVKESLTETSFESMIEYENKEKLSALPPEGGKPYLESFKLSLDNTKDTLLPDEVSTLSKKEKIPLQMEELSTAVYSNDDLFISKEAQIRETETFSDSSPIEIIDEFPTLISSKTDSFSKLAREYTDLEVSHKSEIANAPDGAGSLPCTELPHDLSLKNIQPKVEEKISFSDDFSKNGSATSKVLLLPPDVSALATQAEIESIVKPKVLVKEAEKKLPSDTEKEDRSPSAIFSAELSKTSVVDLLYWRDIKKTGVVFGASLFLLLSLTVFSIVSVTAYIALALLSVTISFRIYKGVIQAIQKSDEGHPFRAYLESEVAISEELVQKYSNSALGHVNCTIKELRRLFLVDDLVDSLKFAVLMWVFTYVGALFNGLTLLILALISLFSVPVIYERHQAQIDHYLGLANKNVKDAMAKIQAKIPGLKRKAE
# These are yes or no findings as the source states them, for the method shown. In cells and extracts the contact can be indirect. Some binding calls cover weakened binding; strength is not graded here. Sequences can lack the tags named with a protein.
# Key:
# [1] = biological target: NogoB (ASY) (Homo sapiens (Human)) (UniProt Q9NQC3); experiment: co-immunoprecipitation from cell lysates
# [2] = biological target: NogoB (ASY) (Homo sapiens (Human)) (UniProt Q9NQC3); experiment: His-tagged BACE purified from HEK293 membrane fraction on Ni-NTA then anti-His sepharose; co-purified gel bands identified by LC/MS/MS
binder,measurement,setting,value
BACE1 with an 8 residue histidine tag inserted in frame at the C-terminus (enzyme) ETDEEPEEPGRRGSFVEMVDNLRGKSGQGYYVEMTVGSPPQTLNILVDTGSSNFAVGAAPHPFLHRYYQRQLSSTYRDLRKGVYVPYTQGKWEGELGTDLVSIPHGPNVTVRANIAAITESDKFFINGSNWEGILGLAYAEIARPDDSLEPFFDSLVKQTHVPNLFSLQLCGAGFPLNQSEVLASVGGSMIIGGIDHSLYTGSLWYTPIRREWYYEVIIVRVEINGQDLKMDCKEYNYDKSIVDSGTTNLRLPKKVFEAAVKSIKAASSTEKFPDGFWLGEQLVCWQAGTTPWNIFPVISLYLMGEVTNQSFRITILPQQYLRPVEDVATSQDDCYKFAISQSSTGTVMGAVIMEGFYVVFDRARKRIGFAVSACHVHDEFRTAAVEGPFVTLDMEDCGYNIPQTDESTLMTIAYVMAAICALFMLPLCLMVCQWRCLRCLRQQHDDFADDISLLKHHHHHHHH,binding,[1],binds
same,binding,[2],binds
